These are yes or no findings as the source states them, for the method shown. In cells and extracts the contact can be indirect. Here binding means that the protein was enriched with, or labelled near, the bait; the list need not be complete.
Assays:
[1] = molecular target: GST-CAND1 (unmodified) (human) (UniProt Q86VP6); assay: affinity purification with mass spectrometry; only the target purified
[2] = molecular target: GST-tagged phosphorylated CAND1 (human) (UniProt Q86VP6); assay: as above

By UniProt entry, the sequences of proteins in these tests, tags left out.
UniProt Q86VP6: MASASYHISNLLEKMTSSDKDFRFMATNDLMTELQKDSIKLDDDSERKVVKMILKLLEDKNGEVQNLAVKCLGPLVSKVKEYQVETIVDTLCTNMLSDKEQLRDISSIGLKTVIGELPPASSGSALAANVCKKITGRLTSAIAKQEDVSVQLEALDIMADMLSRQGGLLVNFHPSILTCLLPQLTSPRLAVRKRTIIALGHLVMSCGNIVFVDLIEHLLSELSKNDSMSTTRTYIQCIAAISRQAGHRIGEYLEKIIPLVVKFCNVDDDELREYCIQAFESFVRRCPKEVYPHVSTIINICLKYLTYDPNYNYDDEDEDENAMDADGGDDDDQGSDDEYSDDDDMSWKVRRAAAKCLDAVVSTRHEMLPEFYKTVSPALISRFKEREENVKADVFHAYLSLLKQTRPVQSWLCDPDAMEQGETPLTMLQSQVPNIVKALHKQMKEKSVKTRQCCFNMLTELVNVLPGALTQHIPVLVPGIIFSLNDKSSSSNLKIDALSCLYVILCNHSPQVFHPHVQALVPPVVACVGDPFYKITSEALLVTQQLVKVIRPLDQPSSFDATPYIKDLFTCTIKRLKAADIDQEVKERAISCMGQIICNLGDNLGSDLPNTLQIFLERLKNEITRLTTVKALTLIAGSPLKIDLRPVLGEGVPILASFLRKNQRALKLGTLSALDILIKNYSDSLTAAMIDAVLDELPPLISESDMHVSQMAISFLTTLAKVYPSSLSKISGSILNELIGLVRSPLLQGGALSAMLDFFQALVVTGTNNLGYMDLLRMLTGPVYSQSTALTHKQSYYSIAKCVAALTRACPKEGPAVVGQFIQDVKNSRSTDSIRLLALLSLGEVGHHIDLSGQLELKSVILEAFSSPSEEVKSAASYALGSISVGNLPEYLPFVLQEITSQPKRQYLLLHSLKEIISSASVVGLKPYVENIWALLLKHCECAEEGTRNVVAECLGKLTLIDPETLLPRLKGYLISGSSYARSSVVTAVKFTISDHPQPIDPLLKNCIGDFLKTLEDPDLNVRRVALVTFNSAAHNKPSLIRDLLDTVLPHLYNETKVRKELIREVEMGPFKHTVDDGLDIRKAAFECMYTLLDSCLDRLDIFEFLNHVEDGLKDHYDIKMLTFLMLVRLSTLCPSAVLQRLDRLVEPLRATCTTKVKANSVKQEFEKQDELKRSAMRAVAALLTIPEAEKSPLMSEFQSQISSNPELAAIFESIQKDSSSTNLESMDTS
UniProt Q13619: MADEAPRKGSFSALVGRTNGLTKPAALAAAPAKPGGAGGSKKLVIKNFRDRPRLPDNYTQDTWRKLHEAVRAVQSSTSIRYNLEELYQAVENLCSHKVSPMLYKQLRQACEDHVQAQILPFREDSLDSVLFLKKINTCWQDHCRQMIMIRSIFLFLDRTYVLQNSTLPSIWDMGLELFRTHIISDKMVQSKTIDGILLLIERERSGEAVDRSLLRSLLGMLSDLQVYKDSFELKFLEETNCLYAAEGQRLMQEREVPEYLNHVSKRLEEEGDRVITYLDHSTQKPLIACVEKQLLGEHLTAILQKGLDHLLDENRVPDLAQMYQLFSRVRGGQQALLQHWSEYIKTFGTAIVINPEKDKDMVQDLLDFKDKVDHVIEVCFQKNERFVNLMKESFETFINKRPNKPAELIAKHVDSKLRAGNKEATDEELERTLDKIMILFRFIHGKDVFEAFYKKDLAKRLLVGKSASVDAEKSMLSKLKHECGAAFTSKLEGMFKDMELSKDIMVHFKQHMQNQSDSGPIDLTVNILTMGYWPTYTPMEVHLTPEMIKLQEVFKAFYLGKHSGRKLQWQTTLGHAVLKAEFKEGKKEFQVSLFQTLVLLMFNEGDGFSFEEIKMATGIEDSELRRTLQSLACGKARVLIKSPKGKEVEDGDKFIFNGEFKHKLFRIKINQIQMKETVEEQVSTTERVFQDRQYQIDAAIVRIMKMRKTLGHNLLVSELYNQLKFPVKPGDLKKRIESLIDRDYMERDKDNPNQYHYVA
UniProt Q13620: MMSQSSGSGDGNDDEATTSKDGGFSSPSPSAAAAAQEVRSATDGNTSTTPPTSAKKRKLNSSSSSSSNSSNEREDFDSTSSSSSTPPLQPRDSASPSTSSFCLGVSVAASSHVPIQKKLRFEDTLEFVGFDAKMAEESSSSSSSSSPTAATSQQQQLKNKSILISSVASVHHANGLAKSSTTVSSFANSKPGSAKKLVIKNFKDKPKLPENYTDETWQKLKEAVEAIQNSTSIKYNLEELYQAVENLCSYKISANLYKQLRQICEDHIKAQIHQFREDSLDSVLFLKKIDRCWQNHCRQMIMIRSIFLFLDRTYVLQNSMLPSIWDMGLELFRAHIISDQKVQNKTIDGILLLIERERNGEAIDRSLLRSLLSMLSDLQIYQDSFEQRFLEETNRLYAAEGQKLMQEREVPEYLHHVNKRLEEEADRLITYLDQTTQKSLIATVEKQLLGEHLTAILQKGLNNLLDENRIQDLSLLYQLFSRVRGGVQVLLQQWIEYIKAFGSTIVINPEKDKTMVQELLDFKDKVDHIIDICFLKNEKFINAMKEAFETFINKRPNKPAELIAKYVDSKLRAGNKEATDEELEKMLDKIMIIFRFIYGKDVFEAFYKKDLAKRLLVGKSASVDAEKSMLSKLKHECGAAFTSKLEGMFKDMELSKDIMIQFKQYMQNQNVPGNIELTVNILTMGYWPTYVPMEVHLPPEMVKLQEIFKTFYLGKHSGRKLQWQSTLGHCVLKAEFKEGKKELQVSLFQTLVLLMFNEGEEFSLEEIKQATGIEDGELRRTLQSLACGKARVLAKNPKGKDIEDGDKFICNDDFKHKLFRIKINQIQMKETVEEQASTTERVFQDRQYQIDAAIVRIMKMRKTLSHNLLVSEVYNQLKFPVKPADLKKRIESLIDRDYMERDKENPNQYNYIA
UniProt Q93034: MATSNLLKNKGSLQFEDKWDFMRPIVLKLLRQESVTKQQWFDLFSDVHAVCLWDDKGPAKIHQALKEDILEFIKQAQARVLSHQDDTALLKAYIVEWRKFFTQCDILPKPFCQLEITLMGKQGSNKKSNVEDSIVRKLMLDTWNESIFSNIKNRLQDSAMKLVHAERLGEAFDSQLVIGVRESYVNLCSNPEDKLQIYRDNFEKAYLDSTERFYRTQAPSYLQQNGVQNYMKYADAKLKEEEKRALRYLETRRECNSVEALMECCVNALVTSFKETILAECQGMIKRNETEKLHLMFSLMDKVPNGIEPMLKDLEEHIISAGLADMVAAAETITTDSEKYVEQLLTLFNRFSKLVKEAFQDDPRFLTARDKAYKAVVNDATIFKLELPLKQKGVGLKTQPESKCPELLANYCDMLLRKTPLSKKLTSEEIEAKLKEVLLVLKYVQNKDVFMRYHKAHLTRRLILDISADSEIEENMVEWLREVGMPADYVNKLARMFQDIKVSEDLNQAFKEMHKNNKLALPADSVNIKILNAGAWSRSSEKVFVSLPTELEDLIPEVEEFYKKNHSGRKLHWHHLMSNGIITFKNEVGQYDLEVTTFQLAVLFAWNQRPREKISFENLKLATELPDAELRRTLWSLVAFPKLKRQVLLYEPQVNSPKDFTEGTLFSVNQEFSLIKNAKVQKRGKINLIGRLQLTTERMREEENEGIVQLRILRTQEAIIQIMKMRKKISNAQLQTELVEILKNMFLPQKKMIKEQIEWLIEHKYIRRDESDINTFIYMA

Substance | binding [1] | binding [2]
Cul4A (from UniProt Q13619 1-759) | binds | binds
Cul4B (from UniProt Q13620 1-913) | binds | binds
Cul5 (from UniProt Q93034 1-780) | binds | binds
